Data on 64 compounds can be found in PubChem BioAssay AID2685 (National Center for Advancing Translational Sciences (NCATS), 2010).

The list shows a part of the results. Shown are side measurements of this screen, not its main read-out; they come without a call. Most of these compounds were active or inconclusive in the main read-out, so they are no random draw. Potencies come from curve fits of mixed quality, noted in brackets.

This test in a line: qHTS Assay for Lipid Storage Modulators in Drosophila S3 Cells.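 For cell number change: cells counted by Cell Tracker Red CMTPX staining in the red channel.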 Conditions: BODIPY lipid droplet fluorescence, 18-24 h; for cell number change: measured here: cell count max response, cells fed with added oleic acid. In a few lines: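 Drosophila S3 cells got compounds at several concentrations plus oleic acid (400 uM solution). Laser-scanning cytometry with 488 nm excitation read lipid droplets at 500-530 nm and cells at 575-640 nm. Percent activity was relative to 20 uM Triacsin C.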
A general note: In qHTS, concentration-response curves come from the screen itself.

Setting [1] is: measured here: cell number channel AC50, cells fed with added oleic acid.
Setting [2] is: measured here: lipid fluorescence (Fed channel) AC50, cells fed with added oleic acid.

The term AC50 denotes the concentration at which the activity in the assay is half-maximal. A higher AC50 goes with weaker potency. `Cc1nnc(SCc2cccc(CSc3nnc(C)s3)c2)s1`: the cell number change was determined as 32.9%. Further, the AC50 under setting [1] is 16.4 µM [rising, single point].
Turning to `Cc1ccc(CS(=O)Cc2ccc(C(=O)NCCc3ccccc3)o2)cc1` (centres undefined), the AC50 under setting [2] is 29.1 µM [falling, single point].
Consider `CCN1CCN(C(=O)c2cc3c(s2)-c2ccccc2S(=O)(=O)C3)CC1`, for which the cell number change amounted to 42%. For the same compound, the AC50 under setting [1] is 8.2 µM [rising, single point].
Take `Nc1ccc2nc3c(=O)[nH]c(=S)[nH]c3nc2c1`: the cell number change is -90.6%. The AC50 under setting [2] was 29.1 µM [falling, single point].
As to `CC(C)CC1NC(=O)N(CC(=O)Nc2cccc(Br)c2)C1=O` (centres undefined), the cell number change is -9.94%. Further, under setting [2], the AC50 is 0.461 µM [falling, full curve, poor fit].
`COc1cc(C(=O)Nc2ccc3c(c2)C(=O)c2ccccc2C3=O)cc(OC)c1OC`: the cell number change is 8.83%. For the same compound, the AC50 under setting [2] was 0.82 µM [rising, full curve, poor fit].
`COc1ccc(-c2c(C)c3ccc(O)cc3oc2=O)cc1OC`: the cell number change was -1.19%.
Still for that read-out and setting: as for `NC(=O)c1nn(CC(=O)Nc2cccc(S(=O)(=O)N3CCCCCC3)c2)c(=O)c2ccccc12`, the figure is -7.7%.
With `CCC(C(=O)NCc1ccco1)N(Cc1cccs1)C(=O)CNS(=O)(=O)c1ccccc1` (centres undefined), the cell number change is 1.18%.
On the same count and under the same terms, as for `O=C(COC(=O)[C@@H]1CC(O)CN1S(=O)(=O)c1ccccc1[N+](=O)[O-])c1ccccc1` (some centres undefined), the figure is 5.55%.
As for `CCOc1ccc(NC(=S)N2CCCCCC2)cc1`, the cell number change stood at 0.566%. The AC50 under setting [2] is 0.00411 µM [rising, full curve, poor fit].
On to `O=C(NC(=S)Nc1ncc(Br)cc1Br)c1cncc(Br)c1`, for which the AC50 under setting [1] is 0.326 µM [rising, full curve, poor fit] and the concentration at half-maximal activity (AC50) under setting [2] is 20.6 µM [rising, partial curve, poor fit].
As to `CC(C)(C)C1CCC2(CC1)C(C#N)=C(SCC(=O)Nc1ccccc1)NC(=O)C2C#N` (centres undefined), the cell number change was determined as 8.69%. For the same compound, under setting [2], the AC50 is 20.6 µM [rising, partial curve, poor fit].
As to `O=[N+]([O-])c1cc(S(=O)(=O)NCCCN2CCOCC2)ccc1Cl`, the cell number change was found to be 44.5%. Further, the AC50 under setting [1] is 29.1 µM [rising, single point]. In addition, the AC50 under setting [2] was 0.00517 µM [falling, full curve, poor fit].
Regarding `COc1cc(OC)cc(C(=O)N2CCC(N3CCN(c4ccccc4OC)CC3)CC2)c1`, the AC50 was 0.58 µM [rising, full curve] under setting [1] and 2.06 µM [rising, single point] under setting [2].
As for `Cc1ccc(C)c(NS(=O)(=O)c2cc(C(=O)NCCSC3CCCCC3)ccc2C)c1`, the cell number change was -0.153%. Besides, under setting [2], the concentration at half-maximal activity (AC50) was 1.84 µM [falling, partial curve, poor fit].
With `O=C(COc1ccc(/C=N/NC(=O)c2ccccc2O)cc1)Nc1ccc([N+](=O)[O-])cc1`, the cell number change is -43.7%. Further, the AC50 under setting [1] was 3.66 µM [falling, full curve]. Also, under setting [2], the AC50 is 0.116 µM [rising, partial curve, poor fit].
In the case of `Cn1c(CNC(=O)CCNC(=O)c2cccc(F)c2)cc(=O)n(C)c1=O`, the cell number change was -9.91%.
`O=C(NC(=S)N1CCN(c2ccc([N+](=O)[O-])cc2)CC1)c1ccccc1`: the cell number change amounted to 0.273%. Further, the AC50 under setting [2] is 1.64 µM [falling, partial curve].
With `CCOc1ccc(N(CC(=O)NC2CCCCC2)S(=O)(=O)c2ccc(C)cc2)cc1`, the cell number change was found to be 5.56%. For the same compound, the AC50 under setting [2] is 29.1 µM [rising, single point].
With `Cc1nc2ccccn2c1C(=O)N/N=C/c1ccc([N+](=O)[O-])cc1`, the cell number change is 18.2%.
With `N#C/C(=C/c1ccccc1)C(=O)OCC(=O)Nc1ccccc1[N+](=O)[O-]`, the cell number change was found to be 8.3%. Also, the AC50 under setting [2] is 32.6 µM [rising, single point].
Consider `Cc1ccc(Cn2c(=N)c(C(=O)NC3CCCC3)cc3c(=O)n4ccccc4nc32)cc1`, for which the cell number change is -5.67%.
For the compound `Cc1c(C)n(C(=O)CN2CCC(C(N)=O)CC2)c2ccccc12`, the cell number change is -11.3%. The AC50 under setting [2] was 1.16 µM [falling, full curve].
Consider `CCOc1cccc(NC(=O)C(Cc2cccs2)c2nn[nH]n2)c1` (centres undefined), for which the cell number change was 6.33%. Besides, under setting [2], the AC50 is 16.4 µM [rising, single point].
Regarding `N#C/C(C(=O)NCc1ccco1)=C1/SC=C(c2ccccc2)N1c1ccccc1`, the cell number change came out at 5.94%. Also, the AC50 under setting [2] is 2.31 µM [rising, full curve].
In the case of `COc1ccc(S(=O)(=O)Cc2ccc(C(=O)N3CCC(C(N)=O)CC3)o2)cc1`, the cell number change turned out to be 42%. Further, the AC50 under setting [1] was 18.4 µM [rising, single point]. For the same compound, the AC50 under setting [2] is 0.103 µM [falling, full curve, poor fit].
Consider `CN(C)c1nc(SCCOC(=O)Nc2ccccc2)nc(N(C)C)n1`, for which the cell number change was -23.4%.
Take `C=CCc1cccc(CNc2nc3ccccc3n2CCN2CCOCC2)c1O`: the AC50 is 2.59 µM [rising, partial curve] under setting [1] and 2.31 µM [rising, partial curve] under setting [2].
Consider `Cc1nnc2n(Cc3ccccc3)c(=O)c3c4c(sc3n12)COC(C(C)C)C4` (centres undefined), for which the cell number change is -10.8%. Under setting [2], the AC50 was 0.00461 µM [rising, full curve, poor fit].
Turning to `COc1cc(NC(=O)CN2CCCCC2C)c(C)cc1[N+](=O)[O-]` (centres undefined), the cell number change is -23.7%. Moreover, the half-maximal activity concentration (AC50) under setting [1] is 2.91 µM [falling, partial curve, poor fit].
In the case of `CCCCn1c(N)c(N(CC(C)C)C(=O)c2ccco2)c(=O)[nH]c1=O`, the cell number change was -4.82%.
In the case of `O=C(COC(=O)c1ccccc1-n1cnnn1)c1ccc(Br)cc1`, the cell number change is 22.9%. The AC50 under setting [2] was 32.6 µM [rising, single point].
For `Cn1nnc2c(N3CCCCC3)nccc21`, the cell number change was determined as 0.641%. The AC50 under setting [2] was 4.61 µM [rising, single point].
Turning to `CC(C)(C)c1ccc(OCC(=O)NNC(=O)CCc2ccccc2)cc1`, the cell number change is 154%.
`Cc1ccccc1N(C(=O)c1cccs1)c1nc2ccccc2s1`: the AC50 under setting [2] is 6.51 µM [rising, single point].
Take `O=C(c1ccc2nsnc2c1)N1CCN(c2ccc([N+](=O)[O-])cc2)CC1`: the cell number change came to 29%. In addition, the AC50 under setting [2] was 18.4 µM [rising, partial curve].
In the case of `O=S(=O)(c1ccc2c(c1)OCCO2)N1CCC(n2cnc3cc(F)ccc32)CC1`, the cell number change was -13.9%.
For `CCN1CCN(C(=O)Cn2ncc3c2-c2ccccc2OC3)CC1`, the cell number change was found to be 11.9%. Moreover, the AC50 under setting [2] was 4.61 µM [rising, single point].
For the compound `Cc1ccsc1/C=N/Nc1ncc(Cl)cc1Cl`, the cell number change was 56.8%. Besides, the concentration at half-maximal activity (AC50) under setting [1] was 5.8 µM [rising, partial curve]. The AC50 under setting [2] was 2.06 µM [rising, partial curve].
For the compound `CCOC(=O)C1(Cc2ccc(Cl)cc2)CCN(Cc2cn(CC)nc2C)CC1`, the cell number change was found to be 16.4%. For the same compound, the AC50 under setting [1] was 0.00651 µM [rising, full curve, poor fit].
As to `Cc1cc(C)c(C(=O)COC(=O)c2cccc(S(=O)(=O)NCc3ccccc3)c2)cc1C`, the cell number change is 1.77%. Moreover, the half-maximal activity concentration (AC50) under setting [2] is 0.13 µM [falling, full curve, poor fit].
As to `CC1(C)OC(=O)C(=NNc2ccc(Br)cc2)C(=O)O1`, the cell number change was determined as 2.2%. Moreover, the AC50 under setting [2] was 20.6 µM [rising, single point].
In the case of `COC(=O)Nc1ccc(S(=O)(=O)N2CCC(C(=O)N(C)C3CCCCC3)CC2)cc1`, the cell number change is 13.4%. Moreover, under setting [1], the AC50 was 1.64 µM [rising, single point]. Also, the AC50 under setting [2] is 0.0651 µM [falling, full curve, poor fit].
Regarding `O=S(=O)(NCCN1CCOCC1)c1cccs1`, the AC50 under setting [2] was 0.00461 µM [falling, full curve, poor fit].
On to `CC(Sc1nnc(C2CC2)n1C1CC1)C(=O)NC1(C#N)CCCCC1` (centres undefined), for which the cell number change came to 9.58%. Further, the half-maximal activity concentration (AC50) under setting [2] was 4.11 µM [rising, single point].
On to `Cc1ccccc1/C=N/n1c(C2CCCCC2)n[nH]c1=S`, for which the cell number change was -22.2%. In addition, the AC50 under setting [2] is 11.6 µM [falling, partial curve, poor fit].
Turning to `Cc1ccc(NC(=O)CSc2ncc3ccccn23)cc1C`, the cell number change is -22.4%. In addition, the AC50 under setting [2] was 29.1 µM [falling, single point].
Take `CCOc1ccc(OCCC(=O)N2CCN(S(=O)(=O)c3ccc(F)cc3)CC2)cc1`: the AC50 under setting [2] was 0.731 µM [rising, single point].
On to `COc1cccc(-n2nnc(S(=O)(=O)c3ccc(C)cc3)c2N)c1`, for which the cell number change turned out to be 7.79%.
Same read-out and setting: as for `O=C(CC(c1ccccc1)c1ccccc1)Nc1nn[nH]n1`, the figure is -1.38%.
Still for that read-out and setting: as for `O=Cc1ccccc1OCc1ccc2c(c1)OCO2`, the figure is 14.4%.
Take `C/C(=N/Nc1ccc(C)cc1)C1(C)N(O)C(C)(C)C(c2ccco2)=[N+]1[O-]` (centres undefined): the AC50 under setting [2] is 0.146 µM [rising, full curve, poor fit].
Consider `Cc1ccccc1C(=O)Nc1c2c(nn1C(C)(C)C)CS(=O)(=O)C2`, for which the cell number change was determined as 7.12%. Under setting [2], the half-maximal activity concentration (AC50) was 2.06 µM [rising, partial curve].
With `Cc1nonc1OC(C)CNc1ccc([N+](=O)[O-])cc1` (centres undefined), the cell number change is -11.1%. In addition, the AC50 under setting [1] is 1.3 µM [rising, partial curve].
Take `COc1cc2c(cc1OC)CN(C(=O)C1CCCN(C(=O)c3ccc(Cl)cc3)C1)CC2` (centres undefined): the cell number change was -27.1%. For the same compound, the AC50 under setting [2] is 3.26 µM [falling, partial curve].
Consider `O=C(Nc1ccc2c(c1)OCO2)NC1CCN(Cc2ccccc2)CC1`, for which the half-maximal activity concentration (AC50) was 0.517 µM [rising, full curve] under setting [1] and 0.651 µM [rising, full curve] under setting [2].
As to `COc1ccc(NC(=O)COC(=O)c2ccc3ccccc3n2)cc1`, the cell number change was -17.3%. Besides, under setting [2], the AC50 is 29.1 µM [rising, single point].
Regarding `COc1cc(C(=O)N/N=C(\C)c2ccc(NC(=O)Cc3ccccc3)cc2)ccc1O`, the cell number change is -2.6%.
Regarding `O=C(COc1coc(CN2CCN(c3ccccc3)CC2)cc1=O)Nc1ccccc1F`, the cell number change came out at 12.5%.
Consider `O=C(CN1C(=O)C2C3C=CC(C3)C2C1=O)NCCC1=CCCCC1` (centres undefined), for which the AC50 under setting [1] is 6.51 µM [rising, single point].
Regarding `Clc1cc(Cl)c(Cl)cc1Cl`, the cell number change amounted to 21.4%. The AC50 under setting [2] is 0.0731 µM [rising, full curve, poor fit].
Consider `Cc1cccc(C(=O)Nc2ccc(C(=O)N/N=C/c3cccc(C)n3)cc2)c1`, for which the cell number change is -2.61%.
Consider `COc1cc(C2C(C(=O)c3ccc(C)o3)=C(O)C(=O)N2c2cc(C)on2)cc(Br)c1O` (centres undefined), for which the AC50 under setting [2] was 2.91 µM [falling, partial curve, poor fit].
